# Results: the supplement of paper PMC11732987, “Enantioselective OTUD7B fragment discovery through chemoproteomics screening and high-throughput optimisation” (Communications Chemistry, 2025)
# The chains behind the UniProt entries cited, without tags or fusion partners. Where a name states a change or a piece, a line headed by the entry shows the natural chain unless it says otherwise. Residues count along the entry.
# UniProt Q8NB90, 10-31: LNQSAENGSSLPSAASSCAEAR
# UniProt Q96T58, 1065-1087: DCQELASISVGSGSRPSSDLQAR
# UniProt O94804: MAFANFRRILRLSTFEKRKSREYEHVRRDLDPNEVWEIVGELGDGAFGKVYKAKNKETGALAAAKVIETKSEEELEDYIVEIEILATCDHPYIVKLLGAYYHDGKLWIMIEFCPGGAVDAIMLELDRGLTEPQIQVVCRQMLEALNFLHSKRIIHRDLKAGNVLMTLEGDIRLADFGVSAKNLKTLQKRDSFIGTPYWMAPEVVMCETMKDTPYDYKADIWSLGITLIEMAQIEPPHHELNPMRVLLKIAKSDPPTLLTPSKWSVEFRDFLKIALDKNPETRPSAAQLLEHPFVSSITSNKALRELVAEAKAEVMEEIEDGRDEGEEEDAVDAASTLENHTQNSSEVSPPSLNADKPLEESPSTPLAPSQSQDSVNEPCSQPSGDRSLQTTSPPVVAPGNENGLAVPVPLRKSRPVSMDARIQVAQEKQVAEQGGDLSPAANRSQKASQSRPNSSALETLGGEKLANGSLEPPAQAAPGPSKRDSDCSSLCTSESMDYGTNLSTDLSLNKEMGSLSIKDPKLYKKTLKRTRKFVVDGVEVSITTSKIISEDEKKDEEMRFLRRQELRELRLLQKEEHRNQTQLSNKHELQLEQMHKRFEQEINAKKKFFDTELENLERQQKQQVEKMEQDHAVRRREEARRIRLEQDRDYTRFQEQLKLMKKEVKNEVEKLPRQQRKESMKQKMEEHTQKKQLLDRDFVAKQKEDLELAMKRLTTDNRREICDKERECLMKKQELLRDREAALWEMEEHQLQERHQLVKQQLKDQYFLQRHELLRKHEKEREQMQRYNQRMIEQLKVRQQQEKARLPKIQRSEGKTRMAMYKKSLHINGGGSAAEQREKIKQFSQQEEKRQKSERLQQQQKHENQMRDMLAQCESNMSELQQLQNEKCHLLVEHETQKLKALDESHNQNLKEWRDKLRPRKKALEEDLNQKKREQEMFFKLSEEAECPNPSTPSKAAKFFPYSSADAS
# UniProt Q8N3U4: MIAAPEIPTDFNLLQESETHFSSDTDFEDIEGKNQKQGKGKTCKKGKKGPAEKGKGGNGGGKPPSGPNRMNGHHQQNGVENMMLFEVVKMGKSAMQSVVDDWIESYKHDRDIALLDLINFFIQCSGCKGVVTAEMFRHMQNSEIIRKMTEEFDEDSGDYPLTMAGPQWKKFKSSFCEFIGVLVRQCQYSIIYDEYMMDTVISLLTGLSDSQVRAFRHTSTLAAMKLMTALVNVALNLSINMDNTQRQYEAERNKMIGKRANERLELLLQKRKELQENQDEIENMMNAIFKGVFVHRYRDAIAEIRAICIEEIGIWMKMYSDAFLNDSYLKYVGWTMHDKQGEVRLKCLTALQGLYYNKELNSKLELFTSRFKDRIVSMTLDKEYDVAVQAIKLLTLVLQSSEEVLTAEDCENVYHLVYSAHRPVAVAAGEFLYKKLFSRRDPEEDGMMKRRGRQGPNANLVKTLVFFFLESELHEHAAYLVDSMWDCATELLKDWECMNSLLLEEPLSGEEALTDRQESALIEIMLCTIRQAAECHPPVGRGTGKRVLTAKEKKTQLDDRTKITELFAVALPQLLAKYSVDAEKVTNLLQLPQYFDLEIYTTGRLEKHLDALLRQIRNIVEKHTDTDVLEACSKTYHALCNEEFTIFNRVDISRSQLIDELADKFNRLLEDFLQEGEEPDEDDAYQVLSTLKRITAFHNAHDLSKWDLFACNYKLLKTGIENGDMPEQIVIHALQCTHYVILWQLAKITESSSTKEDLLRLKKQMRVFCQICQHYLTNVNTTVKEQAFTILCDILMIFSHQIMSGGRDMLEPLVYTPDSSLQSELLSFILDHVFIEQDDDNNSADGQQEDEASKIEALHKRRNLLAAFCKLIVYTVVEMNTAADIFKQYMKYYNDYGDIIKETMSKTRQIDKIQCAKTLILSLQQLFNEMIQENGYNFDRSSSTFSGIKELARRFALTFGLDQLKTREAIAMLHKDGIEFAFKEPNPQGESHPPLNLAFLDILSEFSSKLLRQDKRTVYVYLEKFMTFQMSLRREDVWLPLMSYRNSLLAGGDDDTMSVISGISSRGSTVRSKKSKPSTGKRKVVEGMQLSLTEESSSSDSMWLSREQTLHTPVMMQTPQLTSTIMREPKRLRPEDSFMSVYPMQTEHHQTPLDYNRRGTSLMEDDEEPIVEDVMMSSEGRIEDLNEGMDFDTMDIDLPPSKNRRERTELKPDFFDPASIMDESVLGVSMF
# UniProt Q9NQZ5: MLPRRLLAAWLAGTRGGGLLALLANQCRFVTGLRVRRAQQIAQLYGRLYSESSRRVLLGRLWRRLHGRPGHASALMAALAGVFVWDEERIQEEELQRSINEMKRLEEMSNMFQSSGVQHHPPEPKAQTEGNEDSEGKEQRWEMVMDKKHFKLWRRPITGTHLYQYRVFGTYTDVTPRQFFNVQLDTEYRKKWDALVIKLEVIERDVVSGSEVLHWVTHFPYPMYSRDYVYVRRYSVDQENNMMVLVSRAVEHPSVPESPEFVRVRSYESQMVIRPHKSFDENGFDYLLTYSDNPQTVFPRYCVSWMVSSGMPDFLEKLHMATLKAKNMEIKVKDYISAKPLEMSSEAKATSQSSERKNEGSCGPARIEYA
# UniProt Q15833: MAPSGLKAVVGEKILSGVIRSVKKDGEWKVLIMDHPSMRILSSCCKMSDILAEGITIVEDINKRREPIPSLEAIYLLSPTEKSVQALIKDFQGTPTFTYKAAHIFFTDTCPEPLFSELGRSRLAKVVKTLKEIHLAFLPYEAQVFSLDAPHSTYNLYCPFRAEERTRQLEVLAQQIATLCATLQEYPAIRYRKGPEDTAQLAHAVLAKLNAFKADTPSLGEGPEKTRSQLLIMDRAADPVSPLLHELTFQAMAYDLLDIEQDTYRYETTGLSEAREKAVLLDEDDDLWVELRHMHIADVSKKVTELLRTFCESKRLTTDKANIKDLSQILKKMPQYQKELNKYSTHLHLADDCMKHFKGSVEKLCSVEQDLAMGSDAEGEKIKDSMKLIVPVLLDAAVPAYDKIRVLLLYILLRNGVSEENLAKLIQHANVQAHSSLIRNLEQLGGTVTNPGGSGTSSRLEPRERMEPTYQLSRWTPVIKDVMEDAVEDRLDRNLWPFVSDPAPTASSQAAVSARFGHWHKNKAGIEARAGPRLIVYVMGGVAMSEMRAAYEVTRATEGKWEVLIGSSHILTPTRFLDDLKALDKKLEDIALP
# UniProt Q5M775, 355-376: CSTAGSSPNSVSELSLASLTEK
# UniProt O15270: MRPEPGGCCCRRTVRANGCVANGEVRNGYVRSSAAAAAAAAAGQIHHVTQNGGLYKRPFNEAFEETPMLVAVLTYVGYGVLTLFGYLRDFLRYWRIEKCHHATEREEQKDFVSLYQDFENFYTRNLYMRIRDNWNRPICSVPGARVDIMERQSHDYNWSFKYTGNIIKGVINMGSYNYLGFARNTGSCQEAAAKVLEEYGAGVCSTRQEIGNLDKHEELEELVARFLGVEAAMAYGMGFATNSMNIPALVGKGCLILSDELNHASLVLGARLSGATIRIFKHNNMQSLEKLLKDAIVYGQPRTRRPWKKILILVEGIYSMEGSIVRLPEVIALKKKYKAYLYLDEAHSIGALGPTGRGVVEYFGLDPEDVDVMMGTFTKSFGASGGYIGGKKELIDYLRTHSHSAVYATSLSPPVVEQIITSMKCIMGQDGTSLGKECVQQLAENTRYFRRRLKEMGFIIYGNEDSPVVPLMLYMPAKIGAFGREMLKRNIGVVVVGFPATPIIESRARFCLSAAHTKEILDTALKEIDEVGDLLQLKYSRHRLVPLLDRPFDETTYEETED
# UniProt O95210: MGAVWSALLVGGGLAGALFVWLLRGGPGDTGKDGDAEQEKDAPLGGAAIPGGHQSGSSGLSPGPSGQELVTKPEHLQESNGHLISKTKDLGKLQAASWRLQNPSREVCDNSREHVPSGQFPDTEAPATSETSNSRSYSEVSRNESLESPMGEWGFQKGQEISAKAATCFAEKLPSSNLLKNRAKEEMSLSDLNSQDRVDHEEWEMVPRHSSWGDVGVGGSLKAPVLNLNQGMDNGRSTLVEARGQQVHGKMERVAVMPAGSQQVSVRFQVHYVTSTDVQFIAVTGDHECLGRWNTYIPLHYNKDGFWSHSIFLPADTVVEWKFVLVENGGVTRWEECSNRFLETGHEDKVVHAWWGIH
# UniProt Q8WWL2, 486-505: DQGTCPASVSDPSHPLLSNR
# UniProt Q15527: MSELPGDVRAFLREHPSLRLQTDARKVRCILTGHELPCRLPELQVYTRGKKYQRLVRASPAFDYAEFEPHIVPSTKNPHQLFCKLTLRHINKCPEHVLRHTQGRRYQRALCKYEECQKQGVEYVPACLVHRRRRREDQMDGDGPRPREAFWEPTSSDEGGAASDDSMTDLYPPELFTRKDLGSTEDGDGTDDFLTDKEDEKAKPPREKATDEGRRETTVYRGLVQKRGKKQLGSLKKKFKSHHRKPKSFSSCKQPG
# UniProt Q8N5C6: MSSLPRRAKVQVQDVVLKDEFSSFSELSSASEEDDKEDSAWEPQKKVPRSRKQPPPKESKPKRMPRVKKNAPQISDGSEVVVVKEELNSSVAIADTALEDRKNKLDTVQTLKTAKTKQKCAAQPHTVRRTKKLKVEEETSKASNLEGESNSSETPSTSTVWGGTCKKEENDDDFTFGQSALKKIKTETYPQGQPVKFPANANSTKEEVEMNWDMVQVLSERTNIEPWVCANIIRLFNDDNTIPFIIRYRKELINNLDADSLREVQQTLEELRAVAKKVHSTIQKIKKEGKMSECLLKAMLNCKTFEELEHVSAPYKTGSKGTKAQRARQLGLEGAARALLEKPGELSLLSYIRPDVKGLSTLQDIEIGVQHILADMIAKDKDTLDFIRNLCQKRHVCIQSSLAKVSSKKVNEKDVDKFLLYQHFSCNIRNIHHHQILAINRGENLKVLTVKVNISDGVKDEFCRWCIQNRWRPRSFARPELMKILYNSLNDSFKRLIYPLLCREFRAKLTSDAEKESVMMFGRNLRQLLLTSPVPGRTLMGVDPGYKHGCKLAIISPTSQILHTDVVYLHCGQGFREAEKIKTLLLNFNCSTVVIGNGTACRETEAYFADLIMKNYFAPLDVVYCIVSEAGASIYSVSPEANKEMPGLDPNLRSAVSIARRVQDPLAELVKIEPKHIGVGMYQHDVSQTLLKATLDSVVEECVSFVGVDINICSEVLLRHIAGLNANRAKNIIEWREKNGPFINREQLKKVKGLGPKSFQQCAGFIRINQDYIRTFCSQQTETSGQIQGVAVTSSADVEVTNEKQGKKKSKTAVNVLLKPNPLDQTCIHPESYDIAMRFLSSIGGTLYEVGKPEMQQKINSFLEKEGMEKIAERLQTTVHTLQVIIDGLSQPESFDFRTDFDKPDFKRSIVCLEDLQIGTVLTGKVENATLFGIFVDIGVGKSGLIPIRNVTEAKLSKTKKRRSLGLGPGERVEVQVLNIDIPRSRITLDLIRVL
# UniProt Q13242: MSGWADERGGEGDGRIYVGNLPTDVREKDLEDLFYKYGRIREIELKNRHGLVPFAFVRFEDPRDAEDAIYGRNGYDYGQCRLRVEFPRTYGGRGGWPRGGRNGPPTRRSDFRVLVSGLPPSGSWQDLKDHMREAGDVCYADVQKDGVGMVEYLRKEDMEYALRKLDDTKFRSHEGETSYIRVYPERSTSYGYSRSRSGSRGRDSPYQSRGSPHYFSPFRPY
# UniProt Q9BVQ7: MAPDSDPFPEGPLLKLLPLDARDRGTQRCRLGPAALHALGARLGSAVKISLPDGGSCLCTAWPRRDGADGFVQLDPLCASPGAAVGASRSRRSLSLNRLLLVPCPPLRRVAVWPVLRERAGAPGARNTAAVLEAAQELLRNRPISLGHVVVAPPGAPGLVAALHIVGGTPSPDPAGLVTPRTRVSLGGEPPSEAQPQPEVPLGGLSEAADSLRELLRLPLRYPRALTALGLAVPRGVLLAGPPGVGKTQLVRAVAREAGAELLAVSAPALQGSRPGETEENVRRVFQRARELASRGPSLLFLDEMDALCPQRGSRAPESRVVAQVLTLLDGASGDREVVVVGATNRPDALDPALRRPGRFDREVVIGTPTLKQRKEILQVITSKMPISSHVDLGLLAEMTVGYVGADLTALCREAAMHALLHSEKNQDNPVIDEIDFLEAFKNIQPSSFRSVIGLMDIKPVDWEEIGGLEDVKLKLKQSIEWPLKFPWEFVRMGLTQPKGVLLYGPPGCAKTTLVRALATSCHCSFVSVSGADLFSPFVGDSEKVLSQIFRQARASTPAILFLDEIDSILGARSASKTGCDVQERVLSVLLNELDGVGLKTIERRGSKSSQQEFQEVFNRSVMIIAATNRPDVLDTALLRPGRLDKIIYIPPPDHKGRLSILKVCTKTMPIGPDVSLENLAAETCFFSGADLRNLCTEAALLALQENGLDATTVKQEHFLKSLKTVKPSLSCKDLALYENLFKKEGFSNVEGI
# This is one part of the list. The data scatter; read single values as rough.
# Assays:
# [1] = compound: ClCC(=O)N[C@@H]1CCCc2ccccc12; assay: log2 mean competition ratio of IA-DTB cysteine labelling (DMSO/compound) (log2 ratio); higher = stronger cysteine engagement by compound; conditions: treatment time: 4 h, cell line lysate: HEK293T
# Method: (§1)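 IA-DTB competitive cysteine chemoproteomics in HEK293T RIPA lysate. Lysates were treated with compound 29 or 30 at 50 or 200 µM for 4 h, then IA-DTB (500 µM, 1 h), trypsin-digested, NeutrAvidin-enriched and analysed by diaPASEF. Competition ratio = intensity DMSO / intensity compound (n=4 treated, n=64 DMSO); binding: mean log2 CR ≥ 1 and p ≤ 0.05 plus QC filters. Target is the cysteine site.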
# [2] = compound: ClCC(=O)N[C@H]1CCCc2ccccc12; assay: as above; conditions: treatment time: 4 h, cell line lysate: HEK293T
# Method: as §1
target,measurement,setting,value
SPATA5 C27 (UniProt Q8NB90),log2 mean competition ratio,[1]; 50 µM,-0.232
same,log2 mean competition ratio,[1]; 200 µM,0.0423
same,log2 mean competition ratio,[2]; 50 µM,0.0111
same,log2 mean competition ratio,[2]; 200 µM,-0.0626
SPEN C2398 (UniProt Q96T58),log2 mean competition ratio,[1]; 50 µM,-0.418
same,log2 mean competition ratio,[1]; 200 µM,-0.0114
same,log2 mean competition ratio,[2]; 50 µM,0.0708
same,log2 mean competition ratio,[2]; 200 µM,-0.215
STK10 C722 (UniProt O94804),log2 mean competition ratio,[1]; 50 µM,0.339
same,log2 mean competition ratio,[1]; 200 µM,-0.201
same,log2 mean competition ratio,[2]; 50 µM,0.226
same,log2 mean competition ratio,[2]; 200 µM,-0.146
SSRP1 C200 (UniProt Q08945),log2 mean competition ratio,[1]; 50 µM,-0.185
same,log2 mean competition ratio,[1]; 200 µM,0.000919
same,log2 mean competition ratio,[2]; 50 µM,-0.175
same,log2 mean competition ratio,[2]; 200 µM,-0.0273
STAG2 C632 (UniProt Q8N3U4),log2 mean competition ratio,[1]; 50 µM,-0.183
same,log2 mean competition ratio,[1]; 200 µM,-0.108
same,log2 mean competition ratio,[2]; 50 µM,0.000746
same,log2 mean competition ratio,[2]; 200 µM,-0.118
STARD7 C362 (UniProt Q9NQZ5),log2 mean competition ratio,[1]; 50 µM,-0.0403
same,log2 mean competition ratio,[1]; 200 µM,0.309
same,log2 mean competition ratio,[2]; 50 µM,-0.362
same,log2 mean competition ratio,[2]; 200 µM,0.171
STXBP2 C365 (UniProt Q15833),log2 mean competition ratio,[1]; 50 µM,-0.339
same,log2 mean competition ratio,[1]; 200 µM,-0.225
same,log2 mean competition ratio,[2]; 50 µM,-0.0085
same,log2 mean competition ratio,[2]; 200 µM,-0.34
SPECC1 C355 (UniProt Q5M775),log2 mean competition ratio,[1]; 50 µM,0.0411
same,log2 mean competition ratio,[1]; 200 µM,-0.0235
same,log2 mean competition ratio,[2]; 50 µM,0.411
same,log2 mean competition ratio,[2]; 200 µM,0.00402
SPEN C1066 (UniProt Q96T58),log2 mean competition ratio,[1]; 50 µM,0.106
same,log2 mean competition ratio,[1]; 200 µM,-0.26
same,log2 mean competition ratio,[2]; 50 µM,-0.319
same,log2 mean competition ratio,[2]; 200 µM,-0.111
SUCLA2 C430 (UniProt Q9P2R7),log2 mean competition ratio,[1]; 50 µM,-0.0411
same,log2 mean competition ratio,[1]; 200 µM,0.137
same,log2 mean competition ratio,[2]; 50 µM,-0.478
same,log2 mean competition ratio,[2]; 200 µM,0.127
SPTBN2 C2030 (UniProt O15020),log2 mean competition ratio,[1]; 50 µM,0.531
same,log2 mean competition ratio,[1]; 200 µM,-0.137
same,log2 mean competition ratio,[2]; 50 µM,-0.167
same,log2 mean competition ratio,[2]; 200 µM,-0.11
SPTLC2 C425 (UniProt O15270),log2 mean competition ratio,[1]; 50 µM,0.012
same,log2 mean competition ratio,[1]; 200 µM,-0.23
same,log2 mean competition ratio,[2]; 50 µM,-0.247
same,log2 mean competition ratio,[2]; 200 µM,-0.138
SRGAP2C C205,log2 mean competition ratio,[1]; 50 µM,-0.0866
same,log2 mean competition ratio,[1]; 200 µM,0.138
same,log2 mean competition ratio,[2]; 50 µM,-0.404
same,log2 mean competition ratio,[2]; 200 µM,0.0682
STBD1 C168 (UniProt O95210),log2 mean competition ratio,[1]; 50 µM,-0.137
same,log2 mean competition ratio,[1]; 200 µM,-0.078
same,log2 mean competition ratio,[2]; 50 µM,0.23
same,log2 mean competition ratio,[2]; 200 µM,-0.0978
SPATA33 C101 (UniProt Q96N06),log2 mean competition ratio,[1]; 50 µM,-0.213
same,log2 mean competition ratio,[1]; 200 µM,-0.129
same,log2 mean competition ratio,[2]; 50 µM,0.348
same,log2 mean competition ratio,[2]; 200 µM,-0.18
SPIRE2 C490 (UniProt Q8WWL2),log2 mean competition ratio,[1]; 50 µM,0.0666
same,log2 mean competition ratio,[1]; 200 µM,0.131
same,log2 mean competition ratio,[2]; 50 µM,-0.275
same,log2 mean competition ratio,[2]; 200 µM,-0.0829
SPAST C220 (UniProt Q9UBP0),log2 mean competition ratio,[1]; 50 µM,-0.014
same,log2 mean competition ratio,[1]; 200 µM,0.0739
same,log2 mean competition ratio,[2]; 50 µM,0.182
same,log2 mean competition ratio,[2]; 200 µM,0.178
SURF2 C127 (UniProt Q15527),log2 mean competition ratio,[1]; 50 µM,-0.00113
same,log2 mean competition ratio,[1]; 200 µM,0.173
same,log2 mean competition ratio,[2]; 50 µM,-0.202
same,log2 mean competition ratio,[2]; 200 µM,0.0139
SRBD1 C912 (UniProt Q8N5C6),log2 mean competition ratio,[1]; 50 µM,-0.617
same,log2 mean competition ratio,[1]; 200 µM,-0.452
same,log2 mean competition ratio,[2]; 50 µM,-0.148
same,log2 mean competition ratio,[2]; 200 µM,-0.372
SRSF9 C138 (UniProt Q13242),log2 mean competition ratio,[1]; 50 µM,-0.073
same,log2 mean competition ratio,[1]; 200 µM,-0.225
same,log2 mean competition ratio,[2]; 50 µM,-0.326
same,log2 mean competition ratio,[2]; 200 µM,-0.138
SPTAN1 C315 (UniProt Q13813),log2 mean competition ratio,[1]; 50 µM,-0.0247
same,log2 mean competition ratio,[1]; 200 µM,-0.137
same,log2 mean competition ratio,[2]; 50 µM,0.238
same,log2 mean competition ratio,[2]; 200 µM,-0.196
SPATA5L1 C732 (UniProt Q9BVQ7),log2 mean competition ratio,[1]; 50 µM,0.136
same,log2 mean competition ratio,[1]; 200 µM,0.234
same,log2 mean competition ratio,[2]; 50 µM,0.56
same,log2 mean competition ratio,[2]; 200 µM,0.0416

# Exported with tabs: entries from further up.
target	measurement	setting	value
SPEN C1066 (UniProt Q96T58)	log2 mean competition ratio	[1]; 50 µM	0.106
SRGAP2C C205	log2 mean competition ratio	[2]; 200 µM	0.0682
SPATA5L1 C732 (UniProt Q9BVQ7)	log2 mean competition ratio	[1]; 200 µM	0.234
